Source: patent US20250269045A1 (PHARMAESSENTIA, published 2025)
These are yes or no findings as the source states them, for the method shown. Some entries that bind do so weakly or less than the wild type.

T1: granulocyte colony-stimulating factor receptor (G-CSFR) (human) (UniProt Q99062)
T1 sequence (looked up): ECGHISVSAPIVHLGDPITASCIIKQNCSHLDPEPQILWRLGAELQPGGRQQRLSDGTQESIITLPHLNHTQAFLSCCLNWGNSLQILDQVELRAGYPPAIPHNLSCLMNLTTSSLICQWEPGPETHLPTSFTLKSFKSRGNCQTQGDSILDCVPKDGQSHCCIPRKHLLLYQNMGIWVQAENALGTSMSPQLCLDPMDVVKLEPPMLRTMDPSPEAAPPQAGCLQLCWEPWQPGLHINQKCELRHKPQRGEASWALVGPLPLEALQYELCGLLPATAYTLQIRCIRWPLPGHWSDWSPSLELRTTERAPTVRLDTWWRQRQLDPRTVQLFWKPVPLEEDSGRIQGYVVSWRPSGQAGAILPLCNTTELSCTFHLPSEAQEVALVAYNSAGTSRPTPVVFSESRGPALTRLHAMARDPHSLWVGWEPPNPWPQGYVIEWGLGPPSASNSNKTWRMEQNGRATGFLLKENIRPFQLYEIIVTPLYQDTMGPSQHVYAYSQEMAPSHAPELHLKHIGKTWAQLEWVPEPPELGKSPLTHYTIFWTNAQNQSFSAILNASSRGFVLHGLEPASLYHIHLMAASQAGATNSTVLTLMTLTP

B1: Filgrastim Reference Standard (ligand, human, UniProt P09919-2 31-204, looked up)
chain: TPLGPASSLPQSFLLKCLEQVRKIQGDGAALQEKLCATYKLCHPEELVLLGHSLGIPWAPLSSCPSQALQLAGCLSQLHSGLFLYQGLLQALEGISPELGPTLDTLQLDVADFATTIWQQMEELGMAPALQPTQGAMPAFASAFQRRAGGVLVASHLQSFLEVSYRVLRHLAQP
notes: also called Filgrastim RS
B2: MetHuG-CSF (ligand)
chain: MTPLGPASSLPQSFLLKCLEQVRKIQGDGAALQEKLCATYKLCHPEELVLLGHSLGIPWAPLSSCPSQALQLAGCLSQLHSGLFLYQGLLQALEGISPELGPTLDTLQLDVADFATTIWQQMEELGMAPALQPTQGAMPAFASAFQRRAGGVLVASHLQSFLEVSYRVLRHLAQP
notes: 175 aa: the 174 aa human G-CSF plus an N-terminal Met; also called MetHuG-CSF intermediate; human G-CSF with additional N-terminal Met

Biological target: T1, granulocyte colony-stimulating factor receptor (G-CSFR) (human)
Assay: SPR (Biacore CM5), G-CSFR immobilised

Row | Binder | binding
1 | B1 | binds
2 | B2 | binds
